{"source": "PubChem BioAssay AID1259254 (NCATS, 2017)", "purpose": "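Gene knock-downs that lead to re-replication, shown by excess G2 DNA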 (primary screen)", "system": "human HCT116 colorectal cancer cells", "reagents": "single siRNA against human genes", "time to read-out": "3 days", "read-out": "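Nuclei stained with Hoechst and imaged; cell-cycle phase assigned by DNA content; G2 share scaled per plate, non-targeting siRNA 0%, GMNN siRNA 100%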", "scale": "G2 robust z-score: higher = more G2 cells, more excess DNA replication", "hit rule": "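An siRNA counts as active if its G2 robust z-score lies at least 5 MADs above the screen median; here such calls match roughly 38% of GMNN control or more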", "note": "Shown is one part, drawn at random, of about 59,000 reagents. Of all reagents, about 1,550 (2.6%) are marked active. 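G2 share is only a proxy for re-replication; each gene was hit by three separate siRNAs, and active genes were retested.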 Reagents against one gene are numbered here. Further read-outs or replicates are left out here. Not given: the amount of reagent."}
{"gene knocked down":"PERP","siRNA no.":1,"G2 robust z-score":-0.00487,"Call":"inactive"}
{"gene knocked down":"PERP","siRNA no.":2,"G2 robust z-score":0.758,"Call":"inactive"}
{"gene knocked down":"PERP","siRNA no.":3,"G2 robust z-score":-0.289,"Call":"inactive"}
{"gene knocked down":"RCAN2","siRNA no.":1,"G2 robust z-score":-1.38,"Call":"inactive"}
{"gene knocked down":"RCAN2","siRNA no.":2,"G2 robust z-score":-0.89,"Call":"inactive"}
{"gene knocked down":"RCAN2","siRNA no.":3,"G2 robust z-score":-0.808,"Call":"inactive"}
{"gene knocked down":"TSR2","siRNA no.":1,"G2 robust z-score":-0.679,"Call":"inactive"}
{"gene knocked down":"TSR2","siRNA no.":2,"G2 robust z-score":1.13,"Call":"inactive"}
{"gene knocked down":"TSR2","siRNA no.":3,"G2 robust z-score":-1.08,"Call":"inactive"}
{"gene knocked down":"RPF2P1","siRNA no.":1,"G2 robust z-score":4.64,"Call":"inactive"}
{"gene knocked down":"RPF2P1","siRNA no.":2,"G2 robust z-score":1.64,"Call":"inactive"}
{"gene knocked down":"RPF2P1","siRNA no.":3,"G2 robust z-score":0.924,"Call":"inactive"}

Entries above whose gene name begins with P or p (3):
{"gene knocked down":"PERP","siRNA no.":1,"G2 robust z-score":-0.00487,"Call":"inactive"}
{"gene knocked down":"PERP","siRNA no.":2,"G2 robust z-score":0.758,"Call":"inactive"}
{"gene knocked down":"PERP","siRNA no.":3,"G2 robust z-score":-0.289,"Call":"inactive"}

The list goes on:
{"gene knocked down":"DSC1","siRNA no.":1,"G2 robust z-score":-1.02,"Call":"inactive"}
{"gene knocked down":"DSC1","siRNA no.":2,"G2 robust z-score":-0.275,"Call":"inactive"}
{"gene knocked down":"DSC1","siRNA no.":3,"G2 robust z-score":0.64,"Call":"inactive"}
{"gene knocked down":"FAM161B","siRNA no.":1,"G2 robust z-score":1.77,"Call":"inactive"}
{"gene knocked down":"FAM161B","siRNA no.":2,"G2 robust z-score":1.47,"Call":"inactive"}
{"gene knocked down":"FAM161B","siRNA no.":3,"G2 robust z-score":-0.448,"Call":"inactive"}
{"gene knocked down":"PAN3","siRNA no.":1,"G2 robust z-score":0.527,"Call":"inactive"}
{"gene knocked down":"PAN3","siRNA no.":2,"G2 robust z-score":1.84,"Call":"inactive"}
{"gene knocked down":"PAN3","siRNA no.":3,"G2 robust z-score":-0.0576,"Call":"inactive"}
{"gene knocked down":"BCORL1","siRNA no.":1,"G2 robust z-score":-0.294,"Call":"inactive"}
{"gene knocked down":"BCORL1","siRNA no.":2,"G2 robust z-score":3.55,"Call":"inactive"}
{"gene knocked down":"BCORL1","siRNA no.":3,"G2 robust z-score":-0.358,"Call":"inactive"}
{"gene knocked down":"CDCA3","siRNA no.":1,"G2 robust z-score":0.988,"Call":"inactive"}
{"gene knocked down":"CDCA3","siRNA no.":2,"G2 robust z-score":-0.757,"Call":"inactive"}
{"gene knocked down":"CDCA3","siRNA no.":3,"G2 robust z-score":-0.524,"Call":"inactive"}
{"gene knocked down":"FUT1","siRNA no.":1,"G2 robust z-score":-1.4,"Call":"inactive"}
{"gene knocked down":"FUT1","siRNA no.":2,"G2 robust z-score":-1.1,"Call":"inactive"}
{"gene knocked down":"FUT1","siRNA no.":3,"G2 robust z-score":0.315,"Call":"inactive"}
